Source: ChEMBL document CHEMBL3988442, “University of Dundee, Small-Polar-MMV Screening Library” (2021).

Chains of the proteins cited; added tags and fusions are not shown. Residues count along the entry.
UniProt P9WFT3, whole entry: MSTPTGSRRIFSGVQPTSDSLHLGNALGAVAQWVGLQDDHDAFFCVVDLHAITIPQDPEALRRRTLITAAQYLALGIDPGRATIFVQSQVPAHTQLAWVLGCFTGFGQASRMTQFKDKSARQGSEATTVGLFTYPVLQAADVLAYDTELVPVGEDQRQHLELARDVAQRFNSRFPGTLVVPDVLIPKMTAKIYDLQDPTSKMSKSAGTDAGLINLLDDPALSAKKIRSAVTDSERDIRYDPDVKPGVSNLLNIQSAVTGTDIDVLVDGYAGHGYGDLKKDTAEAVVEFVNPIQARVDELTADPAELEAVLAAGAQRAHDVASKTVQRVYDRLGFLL
UniProt P9WPC5, whole entry: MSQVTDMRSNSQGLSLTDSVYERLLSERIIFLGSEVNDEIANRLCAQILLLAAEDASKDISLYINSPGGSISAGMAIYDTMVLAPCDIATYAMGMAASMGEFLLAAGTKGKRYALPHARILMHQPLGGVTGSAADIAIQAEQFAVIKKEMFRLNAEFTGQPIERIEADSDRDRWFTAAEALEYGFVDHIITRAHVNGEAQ
UniProt P9WPC3, whole entry partner: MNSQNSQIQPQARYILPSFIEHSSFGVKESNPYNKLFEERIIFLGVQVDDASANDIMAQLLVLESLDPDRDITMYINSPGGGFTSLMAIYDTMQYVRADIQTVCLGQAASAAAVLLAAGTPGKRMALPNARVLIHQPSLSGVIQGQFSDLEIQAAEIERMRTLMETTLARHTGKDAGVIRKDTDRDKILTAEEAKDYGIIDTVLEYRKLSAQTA
UniProt Q8IDJ8, 1-583: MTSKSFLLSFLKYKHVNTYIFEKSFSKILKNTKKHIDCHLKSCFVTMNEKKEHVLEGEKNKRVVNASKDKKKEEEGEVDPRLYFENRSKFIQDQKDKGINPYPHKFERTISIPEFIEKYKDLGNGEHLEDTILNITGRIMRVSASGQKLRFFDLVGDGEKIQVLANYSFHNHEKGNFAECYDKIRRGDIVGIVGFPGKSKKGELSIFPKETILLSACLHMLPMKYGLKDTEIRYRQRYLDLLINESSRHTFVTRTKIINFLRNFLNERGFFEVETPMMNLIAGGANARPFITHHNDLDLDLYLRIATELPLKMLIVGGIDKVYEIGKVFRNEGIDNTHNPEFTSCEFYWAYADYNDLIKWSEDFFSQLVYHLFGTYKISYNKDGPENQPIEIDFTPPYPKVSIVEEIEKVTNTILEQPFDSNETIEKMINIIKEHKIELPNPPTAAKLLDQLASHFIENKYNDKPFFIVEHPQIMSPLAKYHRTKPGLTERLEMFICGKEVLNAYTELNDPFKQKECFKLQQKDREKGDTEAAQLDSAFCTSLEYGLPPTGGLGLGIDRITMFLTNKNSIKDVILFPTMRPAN
UniProt P9WNZ1, whole entry: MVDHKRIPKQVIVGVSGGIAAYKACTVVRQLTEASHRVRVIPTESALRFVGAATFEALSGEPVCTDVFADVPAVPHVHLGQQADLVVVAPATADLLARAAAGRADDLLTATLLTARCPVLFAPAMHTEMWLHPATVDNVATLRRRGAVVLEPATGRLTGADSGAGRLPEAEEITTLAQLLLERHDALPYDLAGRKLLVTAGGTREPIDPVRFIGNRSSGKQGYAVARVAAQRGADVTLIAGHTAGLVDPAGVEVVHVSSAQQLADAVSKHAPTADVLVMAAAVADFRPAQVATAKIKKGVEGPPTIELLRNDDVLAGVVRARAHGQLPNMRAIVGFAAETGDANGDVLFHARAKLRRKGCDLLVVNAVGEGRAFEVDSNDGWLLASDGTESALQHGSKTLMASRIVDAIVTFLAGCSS

Each number is a percent effect as filed. How 0% and 100% were set is not recorded. Most values in the screen are low, and negative values occur. This is an unselected part of the compounds tested. Two or more numbers in one place are separate tests of the same structure; such repeats can differ widely. A dash means the value is not listed here; it may have been measured.

MtTrpRS: 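Tryptophan-tRNA ligase, Mycobacterium tuberculosis (UniProt P9WFT3). Enzyme assay of tryptophanyl-tRNA synthetase; the read-out is not stated. Concentration: 10 µM. Direction is not recorded; retested compounds ran higher, which suggests that high means inhibition. Of about 65,000 compounds tested this way, about 64 (0.098%) reached 50% or more in at least one test.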
ClpP1P2: 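ClpP1P2, Mycobacterium tuberculosis (UniProt P9WPC5 and UniProt P9WPC3). Protease assay of ClpP1P2, read by the AMC dye that it sets free. Compounds at 50 µM. Higher reads as stronger inhibition, judged from the few compounds that gave an IC50. Most other retested compounds had strongly negative values. About 69,000 compounds were tested under these conditions; 0.015% (about 10) showed 50% or more at least once.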
Leishmania in macrophages: 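Cell assay of Leishmania donovani living inside macrophages; the read-out is not stated. Tested at 30 µM. Direction is inferred from retests: higher values go with stronger inhibition. Of about 69,000 compounds tested this way, about 1,000 (1.5%) reached 50% or more in at least one test.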
PfKRS1: 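Lysine-tRNA ligase, Plasmodium falciparum 3D7 (UniProt Q8IDJ8). Enzyme assay of the cytosolic lysyl-tRNA synthetase in 384-well plates, read by luminescence. Compounds at 30 µM. Higher reads as stronger inhibition, judged from the few compounds that gave an IC50. Size under these conditions: about 69,000 compounds, about 49 of them at 50% or above in at least one test.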
CoaBC: 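Coenzyme A biosynthesis protein CoaBC, Mycobacterium tuberculosis (UniProt P9WNZ1). Enzyme assay of CoaBC with a phosphate dye (Biomol Green) read at 650 nm. Compounds at 30 µM. Higher reads as stronger inhibition, judged from the few compounds that gave an IC50. Most strong results did not repeat in a second test. Size under these conditions: about 67,000 compounds, about 40 of them at 50% or above in at least one test.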

Compound	MtTrpRS	ClpP1P2	Leishmania in macrophages	PfKRS1	CoaBC
Cc1cccc(CN2Cc3[nH]nc(COCC4CC4)c3C2)n1	-0.7752	-9.799	-	-5.291	-3.594
CCC(=O)N1CC[C@H]2[C@H](C[C@@H](CN3CCCC3)N2c2nccs2)C1	-	-1.609	-	5.723	2.303
[H][C@]12CN(C(=O)c3ccno3)CCN1C(=O)N(Cc1ccc(C)cc1)C2	-	-	-24.49	-	-
O=C(NCC1CCC1)c1ccnc(-n2ccnc2)c1	1.72	-6.785	32.34	33.28	3.559
COc1ncc(C2(O)CCN(Cc3ccc(F)c(F)c3)CC2)c(OC)n1	-	-8.229	-	3.857	1.456
CNc1cc(N2CCCC2CNCc2ccco2)ncn1 (stereo not shown)	7.941	-9.527	21.49	7.396	4.822
O=C(O)C(F)(F)F.[H][C@@]12CN(C)C[C@]1(C(=O)NC)CCCN2c1ncccn1	-	-	-4.825	-	-
COCC1Cn2nnc(-c3cnn(C)c3)c2CN1Cc1ccc(C)o1 (stereo not shown)	1.493	1.318	18.14	2.516	-0.4706
COCCCN(Cc1cc(O)nc2ccccc12)C(=O)NC(C)C	3.172	3.166	-5.63	-5.308	-1.446
OCc1ccc(OCC(F)(F)F)cc1	-1.342	-6.956	1.554	-1.651	-
CC(C)(Oc1ccc2c(c1)CCCC2=O)C(=O)NCc1ccco1	-0.1009	2.717	-2.059	4.382	-
O=C(O)C(F)(F)F.[H][C@@]12CN(C(=O)c3cccc(C)n3)C[C@]1([H])[C@@H]2CC(=O)NC(C)C	-	-	7.303	-	-
CC(C)CNC(=O)[C@H]1CCS(=O)(=O)[C@@H]2CN(Cc3ccc(Cl)cc3)C[C@H]12	1.501	-7.732	-	11.79	-3.934
O=C(CCn1c(C(F)(F)F)cc2cccnc21)N1CCCC1	-1.797	-9.6	-	2.312	-1.46
Cc1ccc(CN2CCN(C(=O)C3CCC3)[C@@H]3CS(=O)(=O)C[C@@H]32)cc1C	-2.008	3.145	-	8.263	-13.54
Cc1ccccc1CN1CCN(C(=O)c2cnc(C3CC3)[nH]c2=O)CC1	2.026	-2.542	17.87 and -4.128	-1.325	-0.5089
[H][C@@]12COC[C@]1(COc1ccc(C#N)cn1)CN(Cc1ccc(C)o1)C2	-	-	10.4	-	-
Cc1nc(CN(C)C2CCN(Cc3cccc4cccnc34)C2)no1 (stereo not shown)	-7.919	19.31	7.86	-2.443	0.7282
CCc1nnc2n1CCN(Cc1csc(-c3ncccn3)n1)C2	1.939	4.293	-10.03	-2.159	6.114
Cc1ccc(CN2CCC3(CC2)CCN(Cc2ccco2)CC3)cc1.O=C(O)C(F)(F)F.O=C(O)C(F)(F)F	-	-	86.21	-	-
Fc1ccc(CN2CCc3ncnc(C4CC4)c3CC2)cc1	1.826	-4.987	-	-0.08031	0.4847
CN1CC(=O)N(c2cnn(C)c2)CC12CCN(C(=O)c1ccsc1)C2 (stereo not shown)	-2.013	-11.61	-	1.71	-0.9009
[H][C@]12CC[C@@]3(N=C(c4ccccc4)NC3=O)[C@@]1([H])CN(Cc1cccnc1)C2	-	-	-5.572	-	-
COc1ccc(CNCc2ccnc(N3CCCC3)c2)c(OC)c1.Cl	-	-	3.823	-	-
O=C(CC1CCCC1)N1C[C@@H]2CN(Cc3ccoc3)CCO[C@@H]2C1	-0.834	-9.279	-	2.819	1.854
COc1ccc(CN2C[C@@H](O)[C@](O)(CNC(=O)c3ccccn3)C2)cc1	-	7.891	25.29 and 10.5	4.253	-2.771
Cc1c(Cl)c(C(=O)N2C[C@@H](C(=O)O)[C@H](c3cccnc3)C2)nn1C	-0.8922	5.482	-7.5	-0.05457	9.545
FC(F)(F)CCN(Cc1ccon1)C1CCCC1	-6.734	-5.681	7.678	6.393	-4.762
CCOC(=O)c1sc2ccsc2c1CNC(=O)CC	-4.762	6.409	16.94	5.406	6.745
CN(C)c1ccc(C(O)CNS(=O)(=O)C2CC2)cc1 (stereo not shown)	12.84	1.351	-9.725 and 4.555	5.059	-6.977
O=C(NCCOc1ccc(F)c(F)c1)NCc1ccncc1	2.245	-6.644	22.55	4.88	-3.625
Cc1noc(Cl)c1CCC(=O)N1CCN(c2ncccn2)CC1	4.581	-3.045	19.92	9.647	7.179
CC(Nc1ncnc2c1NC(=O)CN2)c1ccccn1 (stereo not shown)	3.183	-274.3	19.01	10.91	3.061
COc1ccc(CN2CCCC2c2cccc(F)c2)c(OC)c1OC (stereo not shown)	-0.311	-0.6921	53.41	1.241	-1.09
O=C(NCCN1CCc2ccccc21)c1cc(-c2ccc(O)cc2)n[nH]1	5.14	4.931	26.12	-0.8747	0.9926
O=C(Cc1cccc(F)c1)N1CCCCC1c1ccn2ccnc2n1 (stereo not shown)	-1.756	-7.837	-14.86	-7.257	-1.111
COc1cc(CC2CC(c3ccc4c(c3)OCO4)=NO2)cc2c1OCO2 (stereo not shown)	-12.24	-11.95	-18.81	1.457	-0.7282
OC1CCN(CCCNc2ncccn2)CC1	0.7538	-9.337	32.37	6.182	-18.47
COCCN1CCC2(CC1)CN(CCn1cccn1)C(=O)CO2	2.327	3.111	-	2.476	-1.25
C=C(C)COc1cccc(CN(C)C(C)c2nccs2)c1 (stereo not shown)	-3.222	-5.466	-8.215	2.628	14.52
CC(C)N1CCC2(CC1)CN(C)C(=O)C[C@H]2C(F)(F)F	-1.841	-1.816	11.77	1.975	-
Cn1ccnc1CN1CCC2(CC1)CN(CC1CC1)C(=O)CO2	-4.961	-0.6359	9.512	-5.088	1.648
CCS(=O)(=O)N1CCC2(CC1)CN(c1cncnc1)C(=O)CO2	3.32	-7.25	12.09	3.257	-0.5013
CCc1nccc(CN2CCCC(CNC(=O)c3ccccn3)C2)n1 (stereo not shown)	4.13	-19.27	19.41	1.655	1.327
O=C(C1CCCO1)N1CCc2ncnc(NC3CCC3)c2CC1.O=C(O)C(F)(F)F (stereo not shown)	-	-	11.26	-	-
COCCNC(=O)NC(C)COc1ccc(F)cc1F (stereo not shown)	-1.527	5.002	-18.81	-1.132	2.767
CNC(=O)C1=NOC2(CCN(Cc3nccs3)C2)C1 (stereo not shown)	0.3487	-7.893	24.69	8.758	3.782
Cc1noc(C)c1CN1C(=O)[C@H]2CC[C@@H]1CN(Cc1cscn1)C2	2.862	-7.802	-	4.055	1.381
CCC(CC)(CNC(=O)NC1CCCC1(C)C)S(C)(=O)=O (stereo not shown)	0.3079	-0.8554	-4.291	1.475	-5.189
CCc1cc(NCCNc2ccncc2C)n2nc(C)c(C)c2n1	0.8244	-14.39	8.382	3.38	-12.84
Cc1ccc2c(n1)N(CCN(C)C)CCN(C(=O)c1ccoc1)C2	-2.502	1.568	-	3.609	1.854
c1cnc(N2CCCC3(CCN(c4ncccn4)C3)C2)nc1 (stereo not shown)	2.532	-6.624	-	-3.453	1.131
CC(C)c1ncc2c(n1)CN(Cc1cccc(C#N)c1)CC2	-2.358	0.4534	29.5	2.074	0.7979
CCn1ccc(NC(=O)CCc2c(C)nn(C)c2C)n1	-4.32	18.96	-6.333	-3.227	3.155
CC(C)(C)OC(=O)N1CC(CC(=O)NCc2ccnc(C3CC3)c2)C1	3.01	-18.63	25.56	3.484	2.927
O=C(O)C(F)(F)F.c1ccc(CN2Cc3[nH]nc(COCC4CC4)c3C2)nc1	-	-	2.186 and 1.259	-	-
COc1nc(C)ccc1CNC(=O)NC(C)Cc1c(C)nn(C)c1C (stereo not shown)	-3.177	1.303	17.11	3.356	9.127
CCNc1ncc(C(=O)N(C)CCc2nc3cc(Cl)ccc3[nH]2)cn1	2.415	-0.3006	30.75	2.205	-1.6
Nc1nc(CN2CCOC(Cn3cncn3)C2)nc2ccccc12 (stereo not shown)	-5.345	6.275	23.3	6.801	0.3373
CC(NC(=O)c1ccc(CS(C)(=O)=O)o1)c1ccc(F)c(F)c1 (stereo not shown)	-0.07788	-5.007	19.6	9.323	-2.215
Cl.Cn1nc(C2CCN(C(=O)CCN3CCOCC3)CC2)c2cccnc21	-	-	3.407	-	-
Cc1nn(C)cc1-c1cc(-c2cn(C)nc2C)n(CC(=O)NC2CC2)n1	1.008	-11.79	-1.03	2.264	-0.9709